Article PMC12370185
Some of the results follow.

The sequences below were run on OCT4 + histone octamer (assay: EMSA with sequencing). Conditions: 10 mM Tris-Cl pH 7.5, 50 mM NaCl, 1 mM DTT, 0.25 mg/ml BSA, 2 mM MgCl2, 0.025% Nonidet P-40, 5% glycerol; 28 nM nucleosome library; 10 min on ice then 30 min …; high values mean tight binding; double strand, one strand shown.

Sequence | binding signal (log2 relative supershift)
GATGGACCCTATACGCGGCATGATTCTCGCCAGTGGTATTAACATATCCTCAGTGGTGAGTATTAACATGGAACTTACTCCAACAATACAGATGCTGAATAAATGTAGTCTAAGTGAAGGAAGAAGGAAAGGTGGGAGCTGCCATCACTCAGAATTGTCCAGCAGGGATTGTGCAAGCTTGTGAATAAAGACAGAGGTTATTGAACAGCGTGCCAGTCGGATAGTGTTCC | 1.56
GATGGACCCTATACGCGGCTAAAGTCCTTCAACATGTGAACAGACACTGTTTCTGAGGCTGTCACACACATGCAGGGAAAAGGATTTACCTTACAAAACAATGTTGCTTTGATAATACCACATCTGCAACCCTAATTGTGCCTTTGTAGCAAGTTGGTTTGGCCATTGGTCATCCTCCACAGCACTGCAATTTATCCTCCAGGAACACATTGCCAGTCGGATAGTGTTCC | 0.0137
GATGGACCCTATACGCGGCTTTGGTTTTCCATATTTATATCCTATATACTTGTGTGTACAATGCAAGCTTTGTTATGCTGTATCTGGCCAGTGTTTTCTTCCCTTTACAACAGGCAGTAACTGTAGCTGTGCATAATGTACCTGACAGTGAAGGTGGCTGGCTATTGAAGTCTCTTGTTGGGCAACGTTTGTGCTGGCACAGCCATGGTATGCCAGTCGGATAGTGTTCC | 0.504
GATGGACCCTATACGCGGCTCTACTTCTTGTTTCTTTCCTTGCTATTTAATACTTAAAGTGTGGTGCCCCACTTGTTTGCCAGGAGCAGTATCACATCAGACTCTGCTGTTAACAAGGTCCCCAGGTGATTCATATGCACATTAAAGTTCATTTTGCACCTCTTTTGGCATTGACTTTACTTTCAGTGGCCTATTTTATGTAATGTAAAATGCCAGTCGGATAGTGTTCC | 0.622
GATGGACCCTATACGCGGCTGAAACAATCCTTACTCAGAGAGTGGATTTGCATCTCTAATAGAGTTCAGGCTCTGTTTGTGAAAGGCTTTTGCTAGGCCTGACCCCATGTCTCAGGAGCACATTGATACCCAGCGCCTTGCCTTTGCCTTGTCCCACACCACAGAGAGCAGTATCATGGGAAAATGCACTAACCTAAAAGAAAGCAAAGGTGCCAGTCGGATAGTGTTCC | 1.23

Each sequence was assayed on SOX2 + histone octamer (assay: EMSA with sequencing). Conditions: 10 mM Tris-Cl pH 7.5, 50 mM NaCl, 1 mM DTT, 0.25 mg/ml BSA, 2 mM MgCl2, 0.025% Nonidet P-40, 5% glycerol; 28 nM nucleosome library; 10 min on ice then 30 min …; high values mean tight binding; double strand, one strand shown.

Sequence | binding signal (log2 relative supershift)
GATGGACCCTATACGCGGCTTTTAAAAATCAATGGCTGATAATACTGTTATCTGTGGTTATACAGCTGATACCAGCATTAAGGACCAAGGTGTCTGTACTAGTGTTTGTATTGCAGGAGGTGGAGAGCGAACAATACCATGAAAAGCAACAAGTTCCTGTGTGCTGCTATATTTGGATAAGAGAGGAAGAATGAGATGGAGGGACTTGTTTGCCAGTCGGATAGTGTTCC | 0.992
GATGGACCCTATACGCGGCCTGGGTTCTGAGAGCCTTCAGGACATGTGTCACCGCAGACGACGTTTTAACTTGTAGTGCTAGCTGCTTGTTTCAACTTGCTCCACAAAGGAAAAATAACTATTATGGTCTGGGTGGCACTGGGAAAACATCTTCCATCTTCTAGACCTAGAAGTGAGACTTTTAGCTGAAGAAATGGACTCCAAGTCCAGTGCCAGTCGGATAGTGTTCC | 0.369
GATGGACCCTATACGCGGCTGTGAAATAACCTGCATTAGAATTACCTGGTGGACAACACATATTAACAATGCATATTCTGAGTCCTCAAAGAACTATCAAATAAGAATCTTTGAGGTGGGGCTACACAATCTCCATCACTGGCAAGCACTCCCAGTACTTCTTATGCACATTACAATTCAAGAACCACTCATGGCTCACATAACTGCTCATGCCAGTCGGATAGTGTTCC | 0.962
GATGGACCCTATACGCGGCTGTGTTTTAAAAAAGAAGTATTTCTTGCAAACACTTATGACTTGTCTATGTCTTCTACAAGTCTGGACATGTCTTGGAACATTATCTGTGTTCTGTGGGTTACAAGGCTTGTCGAGGTCAAAGTACTCAGACATGAGACAGGCACCTTGTATACTCCAGAGAGCTAGAAATACTTGGAGATTAAGTCTAGTTGCCAGTCGGATAGTGTTCC | 0.359
GATGGACCCTATACGCGGCGAACAATCAAGAGCTGTTTCTCTTTGCTCTTCCTCATAGCCATGCTGGAGGCATTCATAGGCACATCCTGGTGGAGGGTGATTTGGGTGGGTAGGAATGGACTTGTTCTGTTGACATTGGCATGAAAGGACTAGAGTGCATCCATCATTCTATGGGTATTTAATGGGCCCTATGTTGAGCTGTGTTCTGGTTGCCAGTCGGATAGTGTTCC | 1.5
GATGGACCCTATACGCGGCGCTTTAGAAATGAATTAAACTCGGTGGAACATTGAATGAGAGTTCACCATTACAATGAGGTACATTTACAATGTTAACAAATGAGGATAAACAGTGATACTTCCCTTTGTGTTATGGGGAGGGGGGCGGGCAAGTGAATGGCCAGGAGCCAAAGGTGGAGGAGAGACATGCTTTTCACAATGTATTCTGATTGCCAGTCGGATAGTGTTCC | 1.54
GATGGACCCTATACGCGGCTTGAAAGCCAAACTCTTAGATGTTGTGCATGTCGAAACTGGAACAAAGATTATAATGCAAGTTCAATTTTCCTCAAATATGGATCTCAACATTAATTGTGGTATGCAGCTCACCCACAGCCTTGGGTGTGGTCTATGAATGCAGCTGCTACTCTGTTCTACAATTATTGTATTTTATTGCCATTATGACTGTGCCAGTCGGATAGTGTTCC | 1.44
GATGGACCCTATACGCGGCCACTATTTCACGACCTTGCACATAGTTCATTTGTTTCATACATCACACACTGTTGTGTTACGTATTGACATGGCTGTCTTCACAACTAGGCTCTGAGCACCTTAAAGGCTGGGACTGACGCCAGTCACAATCTAATGCAAAGGACAGTGCTGTTATGGAAATGTTTATTGAACTGAACTGAAAATCCTGCCTGCCAGTCGGATAGTGTTCC | 0.904
GATGGACCCTATACGCGGCACACAAACTCTTTCCCCCTTGTCCGTTTGCAGGCTCTCTCATCTGGCACCTATAGTGACACCTGCTCCTTTGAGTGGCCCCTTGCCCAGGACACAGCTGTGTTCCTTCATGGCATCATTTGTGTGCTGGCTCAGGCCAGCCTATGGTCCCTGCTCCCCAAGCCTCTCACTGAAGAGAAAGGCACTGAAAGGTGCCAGTCGGATAGTGTTCC | 0.512
GATGGACCCTATACGCGGCGAATGGTGGCTGGACTCTATTAGGCTCCAAACTCTCATGTGCCTGAGCGCCAGCTCCCTCTCTAAACATAAGCATCTCGGGGCTGGAGGTGGGGGGAAATTTTCTGATGCATCTTTCTTTGCCATGTAATTCCTACCCCAGGATCATGCTCACATAAGTGTTCTTGGAATATGTGAGTAAGTGACTGAAAATGCCAGTCGGATAGTGTTCC | 0.436
GATGGACCCTATACGCGGCATTATGTACACAGTCTCATGGACAAAGGCATTTGTCAAGTCTCTATGATATTTCTAGAAATACCTTACAGGGCATTATGACTATACAAAGTCAGGGTAGGGCAGCAGAATGCCTGTCTTCAAGACTCTCCATCCCAATGCTCAGGACTTGTTATGCTACTCAGACCAGCATCTTTTGCACAAAGTATTTGTTGCCAGTCGGATAGTGTTCC | 1.74
GATGGACCCTATACGCGGCTATAGAGATTGAATGGAAGAGTGCCTTGGAAAGTGTCTCTACCAAATGGCACCTGAGCTGAATGTTGTAGAATAAGAGCTGTTCATCAGGATGACAATGGGAGGGGAGGAGGCTGAGATAAAGGCATTTCAAATGGAGGGAATAGCAAAGATGTGGAAGCATGGCCTGTCATTAAACTGCAAGTAGTTCAGTGCCAGTCGGATAGTGTTCC | 0.865
GATGGACCCTATACGCGGCTCATGGAATCCTTCATTAGCTCCATTTCTTAGCAGAAAAGGTTGTGCAGCATATGCCATATCATACTGGATATGCCCCATCTCATGATGAGCTGTCAGGAAGTCGTCCATTGTCACCTTTGTGCACATAAGGATCCTGCATGAAAATGGACAAGATGAAAATGAATCTCACTGACTTTCATTTAACCATTATGCCAGTCGGATAGTGTTCC | 1.08
GATGGACCCTATACGCGGCATGATTCTCGCCAGTGGTATTAACATATCCTCAGTGGTGAGTATTAACATGGAACTTACTCCAACAATACAGATGCTGAATAAATGTAGTCTAAGTGAAGGAAGAAGGAAAGGTGGGAGCTGCCATCACTCAGAATTGTCCAGCAGGGATTGTGCAAGCTTGTGAATAAAGACAGAGGTTATTGAACAGCGTGCCAGTCGGATAGTGTTCC | 0.321
GATGGACCCTATACGCGGCTGCTGGAATGTTCCTGTATTGCCTGCTTTAGCATGTGTGTTGGCAGGGTGTAGATACATACACCCCCACAACGACCCTCCTCCCACCCTATGTAAATGTACTCACTCTACAGCATTGTAAAGGATTTCATTGTGCCATTTTGTTTTCAGAATCATCTTTCACTCTTTTGTGAGTATAATGATAGTAGCTGTTGCCAGTCGGATAGTGTTCC | 1.64
GATGGACCCTATACGCGGCGAGTAAACCAGTCTGCCTGTGAGAGTATTGACTGTGGTTAAGAATGCGGGATTGTGTTGCAAAGAAGCTCAGGCCTGTAATGTTATCACTCAGCAGGACTGGGTCCCATCAGAAGGCACATGGTGTGCCATGACGTAGCTGGTCTTCGACCACAAAAGCAGACTTTTCTCTGTGAATTAGACAAACCACACTGCCAGTCGGATAGTGTTCC | 0.818
GATGGACCCTATACGCGGCTAAAGTCCTTCAACATGTGAACAGACACTGTTTCTGAGGCTGTCACACACATGCAGGGAAAAGGATTTACCTTACAAAACAATGTTGCTTTGATAATACCACATCTGCAACCCTAATTGTGCCTTTGTAGCAAGTTGGTTTGGCCATTGGTCATCCTCCACAGCACTGCAATTTATCCTCCAGGAACACATTGCCAGTCGGATAGTGTTCC | 0.688
GATGGACCCTATACGCGGCTACCAGAGACTGGACAATTTACAAAAGAAAGTGATTTATTGGACTTAACAGTTCCATGTGGCTGGGGAGGCCTCACAATCACAGTGGAAGGTGAAAGGCAAAAGGCACATCGCACATGGTGGCAGACAGGAGAACAGAGCTTGTGCAGGGAGAATGCCCTTTTACATCATATCTCAAGAGACATATTCACTTGCCAGTCGGATAGTGTTCC | 1.62
GATGGACCCTATACGCGGCTTTGGTTTTCCATATTTATATCCTATATACTTGTGTGTACAATGCAAGCTTTGTTATGCTGTATCTGGCCAGTGTTTTCTTCCCTTTACAACAGGCAGTAACTGTAGCTGTGCATAATGTACCTGACAGTGAAGGTGGCTGGCTATTGAAGTCTCTTGTTGGGCAACGTTTGTGCTGGCACAGCCATGGTATGCCAGTCGGATAGTGTTCC | 0.692
